The target of this experiment is T1, FLAG-tagged LKB1 (UniProt Q15831).
T1 sequence: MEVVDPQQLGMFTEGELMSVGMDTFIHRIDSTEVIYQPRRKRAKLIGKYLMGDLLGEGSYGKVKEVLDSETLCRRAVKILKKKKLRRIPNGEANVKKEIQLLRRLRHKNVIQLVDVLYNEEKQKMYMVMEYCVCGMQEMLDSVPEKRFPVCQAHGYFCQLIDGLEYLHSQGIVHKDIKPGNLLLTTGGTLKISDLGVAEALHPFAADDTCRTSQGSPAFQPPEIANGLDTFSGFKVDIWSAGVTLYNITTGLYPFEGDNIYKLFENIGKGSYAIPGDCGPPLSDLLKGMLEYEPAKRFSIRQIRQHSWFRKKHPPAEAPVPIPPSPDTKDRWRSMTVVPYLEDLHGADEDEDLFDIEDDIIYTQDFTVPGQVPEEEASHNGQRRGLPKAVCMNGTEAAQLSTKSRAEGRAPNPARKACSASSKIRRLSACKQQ
The experiment is described as follows: co-IP; HepG2 cells co-transfected with Flag-LKB1 and HA-p38α MAPK for 24 h, then DMSO or 10 μM SB203580 for 24 h; NP40 lysis buffer (25 mM Tris pH 7.4, 150 mM NaCl, 5 mM EDTA, 1% NP-40); 500 μg lysate immunoprecipitated with anti-Flag antibody at 4 °C overnight, Protein A/G Sepharose; blotted with Flag-biotin and HA-biotin antibodies.

Amino acid sequences for entries named in this document (tags omitted).
UniProt Q16539: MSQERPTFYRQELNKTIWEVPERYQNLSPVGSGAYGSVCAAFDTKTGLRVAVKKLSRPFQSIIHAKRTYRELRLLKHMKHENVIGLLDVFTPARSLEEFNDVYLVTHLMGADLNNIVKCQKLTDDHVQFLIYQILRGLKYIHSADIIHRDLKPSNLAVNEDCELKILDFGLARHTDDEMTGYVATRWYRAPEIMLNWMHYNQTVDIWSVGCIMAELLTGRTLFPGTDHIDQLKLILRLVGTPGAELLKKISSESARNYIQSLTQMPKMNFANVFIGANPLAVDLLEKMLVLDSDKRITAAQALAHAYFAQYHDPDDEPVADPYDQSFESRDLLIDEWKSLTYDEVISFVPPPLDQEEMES

No constants are given. Whether binding was seen depends on the method and setting. Binding seen in cells or lysates may run through a third protein. Some binding calls cover weakened binding; strength is not graded here. Where a sequence is shown, tags or fusion partners need not be part of it.

In the case of “HA-tagged p38α MAPK (from UniProt Q16539 1-360)”, the binding result is listed as “binds”.

Source of the values: publication PMC10480499.
